Cleaved PARP in drug-treated melanoma cells

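The test systems are human melanoma cell lines, treated with two drugs together for 72 h and then stained and imaged. Each value is the cleaved-PARP-positive fraction of nuclei relative to DMSO-treated wells, in %, so that 100 equals the control and higher values mean more apoptosis. Every drug was used at one fixed concentration, the higher of two screened. The file gives one value for each pair and line, without errors, so small differences may be noise. The marker varies much from line to line, for technical or biological reasons.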
This is part of the screen, not chosen by result.

All values are for the listed drug together with tipifarnib (50 nM): Cn1cncc1[C@@](N)(c1ccc(Cl)cc1)c1ccc2c(c1)c(-c1cccc(Cl)c1)cc(=O)n2C

For COc1cc2ncnc(Nc3ccc(Oc4ccccc4)cc3)c2cc1OC at 10000 nM the values were IPC-298: 268; RPMI-7951: 208; COLO 800: 121; COLO 829: 85.6; COLO 792: 195; UACC-257: 23.8; UACC-62: 210; WM3619: 142.
For Nc1ncn([C@H]2C[C@H](O)[C@@H](CO)O2)c(=O)n1 at 500 nM the values were IPC-298: 249; RPMI-7951: 126; COLO 800: 82.7; COLO 829: 117; COLO 792: 66.2; UACC-257: 152; UACC-62: 120; WM3619: 110.
For Cc1nc(Nc2ncc(C(=O)Nc3c(C)cccc3Cl)s2)cc(N2CCN(CCO)CC2)n1 at 20 nM the values were IPC-298: 106; RPMI-7951: 155; COLO 800: 244; COLO 829: 187; COLO 792: 468; UACC-257: 158; UACC-62: 171; WM3619: 111.
For Cn1c(Nc2ccc(C(F)(F)F)cc2)nc2cc(Oc3ccnc(-c4ncc(C(F)(F)F)[nH]4)c3)ccc21 at 400 nM the values were IPC-298: 206; RPMI-7951: 175; COLO 800: 52.2; COLO 829: 124; COLO 792: 1450; UACC-257: 331; UACC-62: 163; WM3619: 249.
For COC(=O)c1sccc1S(=O)(=O)Nc1ccc(Nc2ccccc2)cc1OC at 5000 nM the values were IPC-298: 302; RPMI-7951: 79.8; COLO 800: 78.6; COLO 829: 189; COLO 792: 71.6; UACC-257: 46.5; UACC-62: 53.3; WM3619: 112.
For Cc1cc(N2CCOCC2)cc2[nH]c(-c3c(NC[C@@H](O)c4cccc(Cl)c4)cc[nH]c3=O)nc12 at 1000 nM the values were IPC-298: 79.1; RPMI-7951: 255; COLO 800: 806; COLO 829: 145; COLO 792: 83.7; UACC-257: 149; UACC-62: 142; WM3619: 119.
For CN(NC(=O)CC(=O)NN(C)C(=S)c1ccccc1)C(=S)c1ccccc1 at 30 nM the values were IPC-298: 214; RPMI-7951: 254; COLO 800: 275; COLO 829: 387; COLO 792: 1240; UACC-257: 40.0; UACC-62: 146; WM3619: 1600.
For COc1ccc(C2=N[C@@H](c3ccc(Cl)cc3)[C@@H](c3ccc(Cl)cc3)N2C(=O)N2CCNC(=O)C2)c(OC(C)C)c1 at 500 nM the values were IPC-298: 134; RPMI-7951: 159; COLO 800: 106; COLO 829: 119; COLO 792: 152; UACC-257: 181; UACC-62: 144; WM3619: 137.
For CC1(C)CCC(c2ccc(Cl)cc2)=C(CN2CCN(c3ccc(C(=O)NS(=O)(=O)c4ccc(N[C@H](CCN5CCOCC5)CSc5ccccc5)c(S(=O)(=O)C(F)(F)F)c4)cc3)CC2)C1 at 2000 nM the values were IPC-298: 181; RPMI-7951: 239; COLO 800: 218; COLO 829: 159; COLO 792: 1170; UACC-257: 827; UACC-62: 116; WM3619: 300.
For CO[C@@H]1[C@H](N(C)C(=O)c2ccccc2)C[C@H]2O[C@]1(C)n1c3ccccc3c3c4c(c5c6ccccc6n2c5c31)C(=O)NC4 at 400 nM the values were IPC-298: 156; RPMI-7951: 1340; COLO 800: 217; COLO 829: 290; COLO 792: 254; UACC-257: 124; UACC-62: 140; WM3619: 134.
For CC(C)CCN1c2nc(Nc3cc(F)c(O)c(F)c3)ncc2N(C)C(=O)C1C (stereo not given) at 1000 nM the values were IPC-298: 66.3; RPMI-7951: 87.3; COLO 800: 368; COLO 829: 136; COLO 792: 122; UACC-257: 30.6; UACC-62: 111; WM3619: 217.
For OCCn1cc(-c2cnc3nnn(Cc4ccc5ncccc5c4)c3n2)cn1 at 5000 nM the values were IPC-298: 247; RPMI-7951: 71.2; COLO 800: 283; COLO 829: 130; COLO 792: 147; UACC-257: 41.9; UACC-62: 178; WM3619: 126.
For C[C@@H]1CCN(C(=O)CC#N)C[C@@H]1N(C)c1ncnc2[nH]ccc12 at 5000 nM the values were IPC-298: 196; RPMI-7951: 162; COLO 800: 175; COLO 829: 165; COLO 792: 118; UACC-257: 137; UACC-62: 125; WM3619: 140.
For Cc1cn(-c2cc(NC(=O)c3ccc(C)c(Nc4nccc(-c5cccnc5)n4)c3)cc(C(F)(F)F)c2)cn1 at 1000 nM the values were IPC-298: 77.7; RPMI-7951: 119; COLO 800: 162; COLO 829: 67.7; COLO 792: 111; UACC-257: 173; UACC-62: 196; WM3619: 90.0.
For Oc1nc(-c2ccc(C(F)(F)F)cc2)nc2c1CSCC2 at 10000 nM the values were IPC-298: 156; RPMI-7951: 190; COLO 800: 75.4; COLO 829: 124; COLO 792: 104; UACC-257: 84.9; UACC-62: 170; WM3619: 138.
For O=C(Nc1cc(C(F)(F)F)cc(C(F)(F)F)c1)c1cc(Cl)ccc1O at 80 nM the values were IPC-298: 87.7; RPMI-7951: 172; COLO 800: 139; COLO 829: 186; COLO 792: 311; UACC-257: 85.3; UACC-62: 76.7; WM3619: 123.
For CCN(CC)CCCCNc1ncc2cc(-c3cc(OC)cc(OC)c3)c(NC(=O)NC(C)(C)C)nc2n1 at 500 nM the values were IPC-298: 82.6; RPMI-7951: 179; COLO 800: 35.0; COLO 829: 46.3; COLO 792: 117; UACC-257: 17.1; UACC-62: 81.2; WM3619: 98.6.
For Cc1cc(SCc2sc(-c3ccc(C(F)(F)F)c(F)c3)nc2C)ccc1OCC(=O)O at 10000 nM the values were IPC-298: 21.5; RPMI-7951: 122; COLO 800: 312; COLO 829: 22.5; COLO 792: 68.2; UACC-257: 56.8; UACC-62: 246; WM3619: 127.
For C=CCn1c(=O)c2cnc(Nc3ccc(N4CCN(C)CC4)cc3)nc2n1-c1cccc(C(C)(C)O)n1 at 100 nM the values were IPC-298: 98.6; RPMI-7951: 125; COLO 800: 143; COLO 829: 122; COLO 792: 36.2; UACC-257: 70.7; UACC-62: 137; WM3619: 289.
For O=C(Nc1ccccc1)c1cc([N+](=O)[O-])ccc1Cl at 10000 nM the values were IPC-298: 101; RPMI-7951: 122; COLO 800: 157; COLO 829: 251; COLO 792: 63.0; UACC-257: 69.2; UACC-62: 272; WM3619: 284.
For Nc1nc(F)nc2c1ncn2[C@@H]1O[C@H](CO)[C@@H](O)[C@@H]1O at 1000 nM the values were IPC-298: 80.4; RPMI-7951: 259; COLO 800: 147; COLO 829: 92.1; COLO 792: 86.8; UACC-257: 9910; UACC-62: 78.5; WM3619: 133.
For CN(C)S(=O)(=O)c1ccc2c(c1)/C(=C/c1cc3c([nH]1)CCCC3)C(=O)N2 at 2000 nM the values were IPC-298: 255; RPMI-7951: 62.9; COLO 800: 184; COLO 829: 184; COLO 792: 121; UACC-257: 42.0; UACC-62: 118; WM3619: 146.
For C[C@]12O[C@H](C[C@]1(O)CO)n1c3ccccc3c3c4c(c5c6ccccc6n2c5c31)CNC4=O at 20 nM the values were IPC-298: 96.1; RPMI-7951: 177; COLO 800: 195; COLO 829: 149; COLO 792: 360; UACC-257: 163; UACC-62: 136; WM3619: 165.

For reference, 3 entries once more:

* Nc1nc(F)nc2c1ncn2[C@@H]1O[C@H](CO)[C@@H](O)[C@@H]1O at 1000 nM : IPC-298: 80.4; RPMI-7951: 259; COLO 800: 147; COLO 829: 92.1; COLO 792: 86.8; UACC-257: 9910; UACC-62: 78.5; WM3619: 133
* CCN(CC)CCCCNc1ncc2cc(-c3cc(OC)cc(OC)c3)c(NC(=O)NC(C)(C)C)nc2n1 at 500 nM : IPC-298: 82.6; RPMI-7951: 179; COLO 800: 35.0; COLO 829: 46.3; COLO 792: 117; UACC-257: 17.1; UACC-62: 81.2; WM3619: 98.6
* CC1(C)CCC(c2ccc(Cl)cc2)=C(CN2CCN(c3ccc(C(=O)NS(=O)(=O)c4ccc(N[C@H](CCN5CCOCC5)CSc5ccccc5)c(S(=O)(=O)C(F)(F)F)c4)cc3)CC2)C1 at 2000 nM : IPC-298: 181; RPMI-7951: 239; COLO 800: 218; COLO 829: 159; COLO 792: 1170; UACC-257: 827; UACC-62: 116; WM3619: 300

Source: doi:10.1371/journal.pone.0140310, primary screening data, rounded.